Values joined by “and” are separate entries in the source; they are usually repeats but may differ in a detail not shown here. Identical values can stand only once. The list shows a part of the results. The main result of the screen is listed elsewhere. These columns were measured beside it and carry no call. The list favours compounds with an active or inconclusive main result. Words in brackets tell the shape of the fitted curve; partial curves, single points and poor fits give uncertain potencies.
Experiment: qHTS Assay for Modulators of Lamin A Splicing
Details: HeLa LMNA splicing GFP/RFP minigene ratio, 48 h
Method in brief: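 S3 HeLa cells stably expressing lamin A-EGFP splicing minigene plus DsRed2, 600 cells/well, 48 h compound exposure at 37C. Laser-scanning cytometry; analysed as GFP (500-530 nm)/RFP (575-640 nm) total intensity ratio; 0.5% DMSO vehicle.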

[1] = measured here: GFP splicing reporter channel
[2] = measured here: RFP viability control channel

Structure (SMILES)	AC50 [1]	AC50 [2]
CCC1CN(C(=O)Nc2cccc(OC)c2)c2ccccc2O1 (stereo unspecified)	4.47 µM [falling, partial curve, poor fit]	
CCC(CC)C(=O)Oc1c(Sc2ccccc2[N+](=O)[O-])c(C)nn1C(C)(C)C		31.6 µM [rising, single point]
Cc1ccc(NC(C#N)c2ccccc2OCc2ccccc2)cc1 (stereo unspecified)	12.6 µM [falling, partial curve]	11.2 µM [falling, partial curve]
CCOc1ccc(-n2c(-c3ccccc3)c[n+]3c2CCC3)cc1	20 µM [rising, partial curve]	14.1 µM [rising, partial curve]
CCCCS(=O)(=O)Nc1ccc2c(c1)ncn2C1CCCCC1		17.8 µM [rising, single point]
CC(=O)OCCNc1cc(SC(C)C)c2nonc2c1[N+](=O)[O-]		0.251 µM [falling, full curve, poor fit]
Cc1nnc(NC(=O)CSc2nccn2-c2cccc(C)c2C)s1		1.41 µM [rising, partial curve]
CC(C)(C)c1ccc(OCCCC(=O)NC2=NCCS2)cc1	12.6 µM [rising, partial curve]	12.6 µM [rising, single point]
O=C(C1CCCN1C(=O)c1cccs1)N1CCN(Cc2ccc3c(c2)OCO3)CC1 (stereo unspecified)	35.5 µM [rising, single point]	
CCOC(=O)C(N)CSC1CC(=O)N(c2ccc(C(=O)OC)cc2)C1=O (stereo unspecified)		2.82 µM [falling, single point]
COc1ccccc1N1CCN(C(c2cccs2)C(C)NC(=O)c2cccs2)CC1 (stereo unspecified)		35.5 µM [rising, single point]
O=C(O)CCCNS(=O)(=O)c1ccc(F)cc1		5.62 µM [falling, full curve, poor fit]
CCOc1ccccc1NC(=O)Nc1cc(C(=O)NCc2ccc(C)cc2)ccc1N1CCCC1	25.1 µM [falling, single point]	25.1 µM [falling, partial curve]
COc1ccc(OC)c(NC(=O)c2c(NCc3ccc(OC)c(OC)c3)sc3c2CCC3)c1	12.6 µM [falling, single point]	
CC/C(=C(/CC)c1ccc(O)cc1)c1ccc(O)cc1	20 µM [rising, partial curve, poor fit]	11.2 µM [rising, partial curve, poor fit]
Cc1ccc(NS(=O)(=O)c2cc(NC(=O)c3ccc4c(c3)NC(=O)CS4)ccc2C)c(C)c1	35.5 µM [rising, single point]	35.5 µM [rising, single point]
COc1ccc2nc3sc(C(=O)NCc4cccs4)c(N)c3cc2c1		22.4 µM [falling, partial curve]
CCOC(=O)c1sc(NC(=O)/C=C/c2ccccc2)nc1C		3.98 µM [rising, full curve, poor fit]
CCN(CC)c1ccc(/C=N/Nc2nc3ccccc3[nH]2)cc1	4.47 µM [rising, partial curve]	6.31 µM [rising, partial curve]
Cc1nc2ccccc2c2oc(C(=O)NCC3CCCO3)cc12 (stereo unspecified)		12.6 µM [rising, partial curve]
COc1ccc(NC(=O)CN2C(=O)CCc3cc(S(=O)(=O)N4CCOCC4)ccc32)c(OC)c1		0.501 µM [rising, single point]
Cc1c(/C=C/C(=O)c2ccc(Cl)s2)cnn1C		31.6 µM [rising, single point]
O=C1C(Cl)=C(NCCCO)C(=O)c2ccccc21		35.5 µM [rising, single point]
c1ccc(NCc2nc3ccccc3n2CCOc2ccccc2)cc1		11.2 µM [rising, partial curve, poor fit]
COc1ccc(N2CCN(C(=O)c3ccc4c(=O)n(CCc5ccc(OC)c(OC)c5)c(=O)[nH]c4c3)CC2)cc1	11.2 µM [falling, single point] and 25.1 µM [falling, partial curve, poor fit]	14.1 µM [falling, single point] and 31.6 µM [falling, partial curve, poor fit]
CCn1c(SCc2nc3ccccc3[nH]2)nnc1-c1ccccc1OC	0.355 µM [rising, full curve, poor fit]	5.62 µM [rising, partial curve, poor fit]
Cc1ccc(N2CCN(C(=O)c3ccccc3Br)CC2)c(C)c1		20 µM [rising, partial curve, poor fit]
